Results published in the supplement of paper PMC3334620.
Over roughly 33,000 sequences, “E-score (-0.5 to 0.5)” has its median near -0.0014; the highest 2% begin near 0.25. This is one part of the list.

molecular target: T1, Cad1 (UniProt P24813); assay: PBM E-score (8-mer binding enrichment) (E-score (-0.5 to 0.5)); higher = stronger / more preferred TF binding; conditions: protein concentration: 100 nM; construct: GST-full length
T1 sequence: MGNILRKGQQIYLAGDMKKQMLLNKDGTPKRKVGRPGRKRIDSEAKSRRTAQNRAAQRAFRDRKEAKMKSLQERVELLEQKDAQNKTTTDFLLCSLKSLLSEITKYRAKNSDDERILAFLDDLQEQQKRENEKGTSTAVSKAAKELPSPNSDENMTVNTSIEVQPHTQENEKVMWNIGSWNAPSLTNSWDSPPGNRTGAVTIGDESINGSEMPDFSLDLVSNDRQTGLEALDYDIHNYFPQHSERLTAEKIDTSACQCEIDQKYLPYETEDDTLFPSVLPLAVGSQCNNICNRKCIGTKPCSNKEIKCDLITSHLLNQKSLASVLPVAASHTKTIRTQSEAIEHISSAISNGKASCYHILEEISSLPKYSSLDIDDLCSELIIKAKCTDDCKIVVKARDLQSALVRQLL
Procedure, shortened: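 Bound GST-tagged yeast transcription factors, applied at about 100-200 nM to double-stranded universal all-10-mer Agilent arrays, were detected with fluorescent anti-GST. Scans were normalised with masliner. A modified Wilcoxon-Mann-Whitney statistic, the E-score, was assigned to each ungapped eight-base word pooled with its reverse complement by the Universal PBM Analysis Suite.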

| Sequence | PBM E-score |
| --- | --- |
| TCACTGCA | 0.202 |
| AGCCACAG | -0.13 |
| ACAAGCAT | -0.0356 |
| GAAGTAGA | 0.163 |
| ATGCTGAC | 0.165 |
| CAGCATTC | 0.0657 |
| ACTTCTGG | -0.0955 |
| ATCTGAAC | -0.017 |
| AGTCGCTC | -0.0536 |
| CAAGTCTG | -0.1 |
| CCAACATA | 0.195 |
| CCCTAAGC | -0.202 |
| CGTGCGCA | -0.00954 |
| CAGGGTGA | -0.155 |
| CGATGCTA | 0.0257 |
| CATGACAC | 0.221 |
| CGTCTACA | -0.114 |
| AACGGATG | -0.0154 |
| TGGCCGAA | 0.0538 |
| GTTCGGTA | 0.184 |
| CTCTCATA | -0.0446 |
| ACCAAATA | 0.207 |
| CGCCACGA | -0.0919 |
| GCCTGCAC | -0.11 |

| Sequence | PBM E-score |
| --- | --- |
| ACGCGGGA | 0.118 |
| ACTTTGTG | 0.0102 |
| GTTACATA | 0.253 |
| CTCCATTA | -0.11 |
| AATATAAT | 0.18 |
| CCGACGAC | 0.0892 |
| ACCACAAA | 0.166 |
| CCTTAGAC | 0.0261 |
| AGGCAGCA | 0.021 |
| AAGGTGAT | -0.114 |
| CGTGCCAG | -0.00762 |
| CCCTCCAG | -0.309 |
| AACCTCGC | 0.0491 |
| GACCGAGA | 0.125 |
| GTTGCCGA | 0.0817 |
| AAGCGTCG | 0.0859 |
| ATCGTCCC | 0.158 |
| AGCCTACT | -0.107 |
| CCTACGCA | -0.125 |
| GCCATCAA | 0.149 |
| CGTCTTCC | -0.178 |
| TAACTTGA | 0.02 |
| GACGTGCA | 0.12 |
| CCCTACCC | -0.147 |

Another view of some results above.
Sequence,PBM E-score
ACTTCTGG,-0.0955
ATCTGAAC,-0.017
AGTCGCTC,-0.0536

Next part

| Sequence | PBM E-score |
| --- | --- |
| GCAAACGC | 0.124 |
| AGATGACT | -0.0927 |
| AATATTCG | 0.273 |
| AGGCCTCG | -0.242 |
| GCTTTGAC | 0.106 |
| ACCGACAC | 0.126 |
| ACCGGGCC | -0.0842 |
| AGGTATAC | 0.129 |
| GACGTATC | -0.107 |
| CAATCTCG | -0.0657 |
| AAGGACGA | -0.161 |
| ATGCTCCA | -0.0639 |
| GAATTCGC | -0.0565 |
| CGACGCCG | -0.0124 |
| AAAAGAGG | -0.265 |
| ACTAACAA | -0.0409 |
| TCCAACAA | -0.0119 |
| TAGTAGGA | -0.123 |
| ATCATCAC | 0.0639 |
| CCGTAGCG | -0.261 |
| TAATTGTA | 0.196 |
| AGAACCTC | -0.191 |
| CTGGGGAA | -0.212 |
| CCTCATCC | -0.35 |

| Sequence | PBM E-score |
| --- | --- |
| CAGGTAGC | -0.0431 |
| ACACCGTA | -0.104 |
| ACTTCGCA | -0.0268 |
| TCAAGTGA | -0.1 |
| CTACGGGC | -0.262 |
| AAGCATTA | 0.00193 |
| AATATTGA | 0.17 |
| TCTCAGAA | -0.0653 |
| CAATGCGC | 0.165 |
| TGGGAAAA | -0.0204 |
| CTTTATCC | 0.0616 |
| GTAACGTA | 0.0425 |
| ATTGGCTA | 0.0477 |
| AATTCTAG | 0.0754 |
| CAAGCAAC | 0.0253 |
| ACCGAAGA | 0.0676 |
| CTCGGCAA | 0.0528 |
| AGGATACC | -0.0932 |
| AGGCACTA | -0.0654 |
| ATACGTCC | -0.156 |
| AGCTAGCG | 0.111 |
| AATCAATT | 0.17 |

Looked up one by one from the entries so far:

| Sequence | PBM E-score |
| --- | --- |
| CTCGGCAA | 0.0528 |
| AAGCATTA | 0.00193 |
